Data from PubChem BioAssay AID588497 (NMMLSC, 2011).
Screen size: about 360,000 compounds; about 780 (0.22%) were called active. The shares of active, inactive and inconclusive entries below differ from those in the screen. Cut-off read from the data, not from the text of the source: active = inhibition above about 35% (passing the limit was not always enough); inconclusive = no clear call, values can overlap the other calls.

The compounds below were run on Botulinum neurotoxin type F light chain protease (Clostridium botulinum) (assay: BoNT/F light chain protease inhibitors, primary screen, biochemical, flow cytometry, MLPCN library (AID 588497; note: plate controls were buffer without enzyme for full effect and enzyme alone for no effect)). Conditions: Multiplex microsphere protease cleavage assay, at 10 µM, active compounds read high.

Question: How did the inhibition turn out when `O=c1cc(CSc2ccc(Cl)cc2)nc(-c2ccccn2)[nH]1` was run?
Answer: Its inhibition is inconclusive: 1.1%.

Question: With `c1ccc2c(N3CCCCC3)nc(N3CCOCC3)nc2c1` as the compound, how does the inhibition read?
Answer: Its inhibition is inactive: -4.3%.

Question: For `N#Cc1c(C(F)(F)F)cc(Cc2ccccc2)nc1SCC(=O)NCC(=O)O`, which inhibition is on record?
Answer: The inhibition was inconclusive: 72.1%.

Question: For `CCN(C(=O)COC(=O)c1ccc(=O)n(Cc2ccccc2)n1)C1CCCCC1`, which inhibition is on record?
Answer: Its inhibition is inactive: -0.1%.

Question: Which inhibition does the source give for `COc1ccc2ccc3c(c2c1)N=C[C@]1(O3)N(C)c2ccccc2C1(C)C` here?
Answer: Its inhibition is inactive: 3.4%.

Question: `COC(=O)[C@H](c1ccccc1Cl)N1CCc2sccc2C1` was tested. Which inhibition did it give?
Answer: The inhibition was inactive: 1.3%.

Question: How did the inhibition turn out when `Clc1cccc(OCCN2CCCC2)c1` was run?
Answer: Its inhibition is inconclusive: 8.8%.

Question: For `CC(C)(C)c1ccc(C(=O)N2CCC(NC(=O)c3ccccc3)CC2)cc1`, which inhibition is on record?
Answer: The inhibition was inconclusive: 1.3%.

Question: With `C=CCNC(=S)NNC(=O)c1cccn(Cc2ccc(Cl)cc2)c1=O` as the compound, how does the inhibition read?
Answer: The inhibition was inconclusive: 5.2%.

Question: For `Cc1ccsc1-c1cc(C(=O)O)c2c(ccc3ccccc32)n1`, which inhibition is on record?
Answer: Its inhibition is inconclusive: 12.7%.

Question: For `CN(C)C(=O)c1ccccc1Sc1ccc(Cl)cc1Cl`, which inhibition is on record?
Answer: The inhibition was inconclusive: -7.1%.

Question: For `CCCCC(=O)N1CCCC(C(=O)OCC)C1` (configuration not stated), which inhibition is on record?
Answer: Its inhibition is inactive: -0.2%.

Question: With `Cc1ccccc1NC(=O)CCN1C(=O)c2ccccc2C1=O` as the compound, how does the inhibition read?
Answer: Its inhibition is inactive: 16.9%.

Question: `CCOc1cccc(C(=O)NNC(=O)C2C3C=CC(C3)C2C(=O)O)c1` (configuration not stated) was tested. Which inhibition did it give?
Answer: The inhibition was inactive: 1.8%.

Question: `O=C(Nc1nnc(CCc2ccccc2)s1)c1ccccc1` was tested. Which inhibition did it give?
Answer: Its inhibition is inconclusive: 21.9%.

Question: For `O=C(Nc1cccc(Cl)c1)Nc1nnc(CSCCOc2ccc(Cl)cc2)s1`, which inhibition is on record?
Answer: The inhibition was inactive: -1.6%.

Question: With `Cc1ccc2nc(-c3ccccn3)cc(C(=O)Nc3ccc(S(=O)(=O)N4CCOCC4)cc3)c2c1` as the compound, how does the inhibition read?
Answer: The inhibition was inactive: -2.2%.

Question: Which inhibition does the source give for `CCN(CC)C(=O)C(=O)N/N=C/c1cccc(Br)c1` here?
Answer: The inhibition was inactive: -9.1%.

Question: With `Cc1cc2ncn(S(=O)(=O)c3ccc(S(=O)(=O)N4CCOCC4)cc3)c2cc1C` as the compound, how does the inhibition read?
Answer: Its inhibition is inconclusive: -10.9%.

Question: With `Nn1c(SCc2cccc(Br)c2)nnc1-c1cccnc1` as the compound, how does the inhibition read?
Answer: The inhibition was inconclusive: 85.6%.

Question: For `CSc1ccc(S(=O)(=O)N2CCC(C(=O)NCCc3ccccc3)CC2)cc1`, which inhibition is on record?
Answer: Its inhibition is inconclusive: -4%.

Question: How did the inhibition turn out when `CC(Oc1ccc([N+](=O)[O-])cc1)C(=O)NCC1CCCO1` (configuration not stated) was run?
Answer: Its inhibition is inactive: -11.6%.

Question: Which inhibition does the source give for `Nc1nnc(-c2cccc(F)c2)s1` here?
Answer: The inhibition was inconclusive: -55.9%.

Question: Which inhibition does the source give for `CCOC(=O)CN1NC2(CCCCCC2)NC1=S` here?
Answer: The inhibition was inconclusive: 31.6%.

Question: `Cc1csc(N/N=C/c2ccc([N+](=O)[O-])cc2)n1` was tested. Which inhibition did it give?
Answer: The inhibition was inconclusive: -14.9%.

Question: `CCN(CC)CC(=O)Nc1cc(N(C)C)nc2ccccc12` was tested. Which inhibition did it give?
Answer: Its inhibition is inconclusive: 0.1%.

Question: For `COC(=O)CSc1cc(C)nc(NC(C)=O)n1`, which inhibition is on record?
Answer: The inhibition was inactive: 0.7%.
